# Test results published in the supplement of paper PMC5949888.
# Most values lie at the floor of the assay. Slopes are relative: functional sequences can read slightly below zero.
# System: Saccharomyces cerevisiae PS128 hsf1 delta, HSF1(1-493) fusion
# Assay: growth estimate (transactivation domain function in HSF1 fusion, heat-shock survival) (a.u. (slope of normalised read count over time)); higher = stronger growth at 37°C, i.e. more transactivation activity
# Conditions: library: random library
row,Substance,growth estimate
1,PGLHNGETFRSWL,< -0.25
2,NNPF,< -0.25
3,VRKIEVSRI,< -0.25
4,EKNFRDLSERVARSDALLSG,< -0.25
5,VNMTTSRCRPGPPRQGHEKA,< -0.25
6,PKAVVAQGLCSLTHTYRADY,-0.214
7,RRSGFQRTIGIMQPFLAGQE,< -0.25
8,VEDGRVMPIKPAGRQSPERS,< -0.25
9,QGEVVVRAVYSVPSCLSCYK,< -0.25
10,CAYKGRALFAHSTVKLAISP,< -0.25
11,LARYVL,< -0.25
12,REPKTPTP,< -0.25
13,TDYHT,< -0.25
14,GAHQLAGPVRLKDTGPHDSY,< -0.25
15,WPSINVGADLCGAMPV,< -0.25
16,KSEWVVLEPWSD,< -0.25
17,GTPYIKRLESAFFMSVDSRF,< -0.25
18,KVRVRLPSPRGMAPSEARSS,< -0.25
19,DSATRQPLTRVVWLKSLTIT,< -0.25
20,KIAIKDGKDIALSNGCYEGL,< -0.25
21,VSNTVSGRRIGPWEGLNLVC,< -0.25
22,MTLANKIPMSVIWYATGLL,< -0.25
23,VLGGTRTM,< -0.25

row,Substance,growth estimate
1,YHGHGIDNGLCGSSEVSVLR,-0.25
2,LVLATHLKRSVIKALVFETD,< -0.25
3,NSIGYSATYSFVQLRRISTG,< -0.25
4,EGIPFEPLV,< -0.25
5,IHTQASVISWGAARLGKLEV,< -0.25
6,RGASDSVDNRAGSCSRNRRT,< -0.25
7,FWACCSHRHGCCTCDGWFS,< -0.25
8,SPLTTARSSGTRTIPL,< -0.25
9,ALRTIPIVQSKLPLSKGATS,< -0.25
10,YSRVC,< -0.25
11,LRSKDKVVTGLVAIPLALGR,< -0.25
12,LRT,< -0.25
13,SRLC,< -0.25
14,NGWGLTSTCFRRQTILCGPW,< -0.25
15,VPRFWPADTHSFGYSI,< -0.25
16,AAH,< -0.25
17,KFRVVLLLLFDGLRKPRRSK,< -0.25
18,FTV,< -0.25
19,HRFPGLVALPVHYDHVCDPT,< -0.25
20,GGLDPRVAA,0.183
21,VIASKRRGVALFVAV,< -0.25
22,RAHTIEEGVYAGCKVRQFGS,-0.25
23,GIGSHSITGYSSTLTPSWAR,< -0.25

row,Substance,growth estimate
1,YVLAHVSESWKRSVLIPLTS,< -0.25
2,RQPVRLV,< -0.25
3,TWSPAVLLDIRT,< -0.25
4,LINIEIKLKCELKDMTKRGK,< -0.25
5,ASKTAIPQGVCTFGWVSGVS,< -0.25
6,QTVKITPECIPLYWINLGFT,< -0.25
7,YCCLSKLARIRSSWMDRGLR,< -0.25
8,CFCNGDNWPEWAYSPDNIRP,< -0.25
9,HRTDLKGCEF,< -0.25
10,PWT,< -0.25
11,HVLT,< -0.25
12,IMSERGSCLASQGWRRRRHL,< -0.25
13,LTFQCR,< -0.25
14,NAGLSLMW,< -0.25
15,SWDEESRTEISTQIYLVNVH,< -0.25
16,RDPLIITSLFCAIRLVWESR,< -0.25
17,VIGHR,< -0.25
18,DTLVDAVFVRLRS,< -0.25
19,KEDVSTNPFHSKDRRRSASH,< -0.25
20,IKIHLDAHTQ,< -0.25
21,SPP,< -0.25
22,REMLGSSILSWVARDEDTGS,< -0.25
23,IHNLKGRGSLFPRV,< -0.253

row,Substance,growth estimate
1,GVSAYP,< -0.25
2,GWPQSVSIGAPSALIRV,< -0.25
3,FLRGAVVDAPQETGSMFVNS,< -0.25
4,LLLVAVADWGGGPRQPVIGI,< -0.25
5,PSVRIE,< -0.25
6,AEVDVAIMERLMARVIVPM,< -0.25
7,VGGLRSETFPPASVESGVWP,< -0.25
8,LCRCRTTTTGWA,< -0.25
9,HKSMLNGREVETPVHLGVCQ,< -0.25
10,LRVVRVSWRGHTPGSSRNAM,< -0.25
11,KVAGTLDP,< -0.25
12,TLRHLRHGMYQTWADTHRTS,< -0.25
13,YHGGLL,< -0.25
14,GRPVLTINVVPCDRGITRPQ,< -0.25
15,LVSPSQELGCQKNGQNRQYM,< -0.25
16,DLGCRFVLRRPRIRKPLR,< -0.25
17,TQF,< -0.25
18,HRASVYLCLLRGWSSGWSTV,< -0.25
19,GQDVSRRLTVL,< -0.25
20,VCH,< -0.25
21,GSKRARIGLSRAL,< -0.25
22,DGLSYIEGK,< -0.25
23,GKGSIRLW,< -0.25

row,Substance,growth estimate
1,NKREPVISEWSSGRDRRSRN,< -0.25
2,LTIVFPCSVKGCDPAVARYR,< -0.25
3,EVTEVVWVYTVVISGCNTH,< -0.25
4,ASVNDAALGGRMAH,< -0.25
5,ALYQRARRTDI,< -0.25
6,PSWGV,< -0.25
7,ALVLALSLCDREQGRTGPWP,< -0.25
8,DLGNRCNDLYGRL,< -0.25
9,CVTRLVLANWFDVLNPLKYS,< -0.25
10,SRIWWGSSPRGVFTTAPARV,< -0.25
11,NMTMRVSHGSVDKLLIPLGS,-0.25
12,LSVPNAALSGGWFGALPPPC,< -0.25
13,IGDGGTGEAPILRLSCLKGT,< -0.25
14,CYWCGHLRVVGTVSNL,-0.231
15,GLVGDCTTK,< -0.25
16,LYQLLIIKPCGVGTSAPGEP,< -0.25
17,LKGSQPISPRCGCTQWGRVA,< -0.25
18,INVSCG,< -0.25
19,ASRPRI,< -0.25
20,GFRLTSGLARKPGDSSLRSG,-0.195
21,PSH,< -0.25
22,GKSSRQ,< -0.25
23,RVGLQSLPMVMGLLSAFQLS,< -0.25

row,Substance,growth estimate
1,AVNNAGLSTLDCNCSM,< -0.25
2,AARSIQARGSFDRARF,< -0.25
3,VRTLRGGKNGPIRDGNSG,< -0.25
4,PPDDQRTLVR,< -0.25
5,SQVYKRKADSGRD,< -0.25
6,STSMGKQ,< -0.25
7,DIGDSTHGIVTPD,< -0.25
8,RIGIIEGTIQINYKFCFLLM,< -0.25
9,SEGPVPKPELMHFFST,< -0.25
10,MVPVDRL,< -0.25
11,REKDMNVDRVRLLVPWV,< -0.25
12,SSCRRFM,< -0.25
13,RERI,< -0.25
14,RSVMVF,< -0.25
15,ADSRGSIGVSLPSSEVNGMG,< -0.25
16,IVRDSWYV,< -0.25
17,GTLESSRSQQSS,< -0.25
18,QRSFSILLCSAPSHRSNQFS,< -0.25
19,FSFHHIWCCGQEIPFLTVPP,< -0.25
20,PRLQDLPPSFTGFYTDLGCD,-0.151
21,DKRETRRQDTATVRTPRRIP,< -0.25
22,RMYRSC,< -0.25
23,DKLQQEHIVPLRPSNPKIQT,< -0.25

row,Substance,growth estimate
1,LQGLLVELAN,< -0.25
2,TSEPQRLTILRKLRLCGGHE,< -0.25
3,RLEVVAATPSLLIV,< -0.25
4,RVTGIRSLPSTPLGSE,< -0.25
5,RTHRCLTPLRAQDLAYGGPS,< -0.25
6,RITRGTIVD,< -0.25
7,QVRLAVTKSACVSLMIAVLS,< -0.25
8,KVSMERKNGLLGVIEGNTDQ,< -0.25
9,GVTSLRR,< -0.25
10,AQASMPGHPEAYTIPVLRRP,< -0.25
11,ITWGAQAGYEAAVRLVWSGH,< -0.25
12,TTT,< -0.25
13,LSQSSGMHPRFLVFTLDRAP,< -0.25
14,LTPVTSRMLCVLSVLKGPTT,< -0.25
15,IKVHT,< -0.25
16,VNFGPDGTYGERNYH,< -0.25
17,DARQRGSAHLEWILNDARAL,< -0.25
18,CSRVRNMGCGNQRSHFNCEA,< -0.25
19,TRGIR,< -0.25
20,PSVGLRRGWFGRWATFLKSS,< -0.25

# Taken from above:
# Entry of LTPVTSRMLCVLSVLKGPTT under growth estimate: < -0.25
# Entry of RVTGIRSLPSTPLGSE under growth estimate: < -0.25
# Entry of AQASMPGHPEAYTIPVLRRP under growth estimate: < -0.25
# Entry of LSQSSGMHPRFLVFTLDRAP under growth estimate: < -0.25
